These are yes or no findings as the source states them, for the method shown. Binding seen in cells or lysates may run through a third protein. Some binding calls cover weakened binding; strength is not graded here.
Experiments:
[1] = target: T1, P-selectin glycoprotein ligand 1 (PSGL-1) expressed on human cells (human) (UniProt Q14242); test: co-immunoprecipitation from PBMC lysate, anti-PSGL-1 Western blot
T1 sequence: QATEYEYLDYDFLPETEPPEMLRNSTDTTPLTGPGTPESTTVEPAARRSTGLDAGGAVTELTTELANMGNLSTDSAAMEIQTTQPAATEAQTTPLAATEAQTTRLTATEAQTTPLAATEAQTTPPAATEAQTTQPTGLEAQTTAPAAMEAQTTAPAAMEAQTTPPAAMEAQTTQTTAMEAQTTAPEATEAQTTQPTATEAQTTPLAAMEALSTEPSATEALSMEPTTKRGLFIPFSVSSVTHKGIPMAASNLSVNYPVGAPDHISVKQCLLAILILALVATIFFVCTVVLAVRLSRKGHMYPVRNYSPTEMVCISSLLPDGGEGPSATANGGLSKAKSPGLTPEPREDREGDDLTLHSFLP

Amino acid sequences for entries named in this document (tags omitted). A change or cut given only in a name is not applied to a line headed by its entry.
UniProt Q9H7M9: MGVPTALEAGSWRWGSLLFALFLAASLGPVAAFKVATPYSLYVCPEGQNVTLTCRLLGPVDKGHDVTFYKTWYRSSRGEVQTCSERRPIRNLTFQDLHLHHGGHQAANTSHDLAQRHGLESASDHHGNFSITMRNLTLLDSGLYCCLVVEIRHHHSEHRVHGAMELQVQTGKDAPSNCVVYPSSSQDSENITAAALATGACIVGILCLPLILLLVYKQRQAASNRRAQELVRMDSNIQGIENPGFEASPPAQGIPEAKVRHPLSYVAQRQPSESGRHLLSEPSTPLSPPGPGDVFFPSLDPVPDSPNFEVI

[2] = target: T1, P-selectin glycoprotein ligand 1 (PSGL-1) expressed on human cells (human); test: co-immunoprecipitation with anti-VISTA antibody from untreated PBMC lysate, anti-PSGL-1 Western blot

Substance: VISTA (V-Domain Ig Suppressor of T Cell Activation) expressed on human cells (from UniProt Q9H7M9 33-311) (ligand)
- binding [1]: binds
- binding [2]: binds

From patent US20230243836A1
